A short description of the experiment: qHTS Assay for Modulators of Lamin A Splicing. The conditions noted are these: HeLa LMNA splicing GFP/RFP minigene ratio, 48 h. An outline of the steps:
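Read-out is the ratio of GFP to DsRed2 object intensity, acquired by 488 nm laser-scanning cytometry on HeLa lamin A-EGFP minigene reporter cells. Compound incubation 48 hrs at 37 °C in Opti-MEM with 2% FBS; DMSO 0.5% final.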

Setting [1] is: measured here: RFP viability control channel.
[2] abbreviates: measured here: GFP splicing reporter channel.

This is one part of the list. The main result of the screen is listed elsewhere. These columns were measured beside it and carry no call. The list favours compounds with an active or inconclusive main result. Words in brackets tell the shape of the fitted curve; partial curves, single points and poor fits give uncertain potencies.

As for `CCCNC(=O)NS(=O)(=O)c1ccc(Cl)cc1`, the AC50 under setting [1] is 0.00501 µM [falling, full curve].

On to `O=C(c1ccccc1)c1c2c(cc3sc4ccccc4[n+]13)-c1cccc3cccc-2c13`, for which the half-maximal activity concentration (AC50) was 1.12 µM [rising, partial curve] under setting [2] and 11.2 µM [rising, partial curve] under setting [1].

For the compound `Cc1ccc(-n2c(C)nc3c(cnn3-c3ccc(C)c(C)c3)c2=O)cc1C`, the half-maximal activity concentration (AC50) is, setting by setting: under setting [2], 17.8 µM [rising, single point]; under setting [1], 35.5 µM [rising, single point].

In the case of `COc1ccc(N2C(=O)C3C(C2=O)C2C=CC3C23CC3)c(OC)c1` (stereo unspecified), under setting [1], the AC50 is 31.6 µM [rising, single point].

In the case of `Cc1cc(C)n2c(Br)c(CSc3nc4ccccc4o3)nc2n1`, the AC50 is 6.31 µM [rising, partial curve] under setting [2] and 7.94 µM [rising, partial curve, poor fit] under setting [1].

Take `CCOC(=O)CC1C(=O)NCCN1Cc1ccc(OC)c(OC)c1` (stereo unspecified): the AC50 by setting is: under setting [2], 1 µM [falling, single point]; under setting [1], 5.62 µM [falling, single point].

With `Cc1ccc2c(c1)N(C(=O)CCC(=O)N1CCc3ccccc3C1)CCO2`, the AC50 under setting [2] was 15.8 µM [rising, single point].

For the compound `COc1cc(C=O)ccc1OCCOCCOc1cc(C)ccc1Cl`, the AC50 under setting [1] is 14.1 µM [rising, single point].

As to `CC(C)C(NC(=O)c1ccccc1Cl)C(=O)OCc1nc2scc(-c3ccccc3Cl)c2c(=O)[nH]1` (stereo unspecified), the concentration at half-maximal activity (AC50) is, setting by setting: under setting [2], 0.178 µM [rising, full curve]; under setting [1], 4.47 µM [rising, partial curve].

For `Cc1nc2ccccn2c1C(=O)OCC#N`, the AC50 under setting [2] was 0.158 µM [rising, full curve, poor fit].

For the compound `Nc1ccccc1Nc1ccccc1`, the AC50 under setting [2] is 15.8 µM [falling, single point].

Turning to `CCOC(=O)c1cc([N+](=O)[O-])c([N+](=O)[O-])cc1NC(C)=O`, under setting [1], the concentration at half-maximal activity (AC50) is 22.4 µM [falling, partial curve, poor fit].

As for `Cc1ccc(C)c(NC(=O)Cn2cc(S(=O)(=O)Cc3cccc(Cl)c3)c3ccccc32)c1`, the AC50 under setting [1] was 35.5 µM [falling, single point].

In the case of `N#Cc1ccsc1NC(=O)COc1ccc(-c2nnco2)cc1`, the AC50 under setting [1] is 17.8 µM [rising, partial curve, poor fit].

Regarding `CCOC(=O)c1cncc(C#CCOC(=O)Nc2ccc(OC(F)(F)F)cc2)c1`, the concentration at half-maximal activity (AC50) reads like this: under setting [2], 0.158 µM [falling, full curve, poor fit]; under setting [1], 0.141 µM [falling, full curve, poor fit].

In the case of `O=C(CSc1nccc(-c2cccs2)n1)Nc1cccc(Cl)c1Cl`, the concentration at half-maximal activity (AC50) is 35.5 µM [falling, single point] under setting [2] and 25.1 µM [falling, partial curve, poor fit] under setting [1].

For `Cc1ccc2nc3sc(C(=O)N4CCCc5ccccc54)c(N)c3cc2c1`, under setting [1], the AC50 is 35.5 µM [rising, partial curve].

As to `CC(=O)O[C@]1(C(C)=O)CC[C@H]2[C@@H]3C=C(Cl)C4=CC(=O)CC[C@]4(C)[C@H]3CC[C@@]21C`, the half-maximal activity concentration (AC50) under setting [2] was 1.41 µM [falling, full curve, poor fit].

As for `COc1ccc(C(=O)C(C)N(C(=O)c2ccc(Cl)cc2Cl)N2C(=O)C3C4C=CC(C4)C3C2=O)cc1` (stereo unspecified), the concentration at half-maximal activity (AC50) under setting [2] was 11.2 µM [rising, single point].

As for `O=C(Nc1nnc(-c2cccnc2)o1)c1cccc([N+](=O)[O-])c1`, under setting [2], the AC50 is 1.26 µM [rising, full curve, poor fit].

For `COC(=O)c1ccc(NC(=O)C23CC4CC(C2)CC(n2cnc(Cl)n2)(C4)C3)cc1`, the AC50 under setting [1] was 20 µM [rising, single point].

On to `Cc1nn(-c2ccccc2)c(Cl)c1/C=N/Nc1ccc(Cl)c(C(=O)O)c1`, for which the half-maximal activity concentration (AC50) under setting [1] was 3.55 µM [rising, full curve, poor fit].

Consider `CC(=O)c1cc(-c2ccccc2)n(CC(=O)Nc2ccc(C)c(C)c2)c1C`, for which the AC50 runs as follows: under setting [2], 35.5 µM [falling, single point]; under setting [1], 35.5 µM [falling, single point].

Consider `Cn1ccnc1SCC(=O)Nc1cccc(S(=O)(=O)N2CCCCC2)c1`, for which the AC50 under setting [2] was 20 µM [falling, partial curve] and the AC50 under setting [1] was 12.6 µM [falling, partial curve, poor fit].

For `COc1ccccc1-c1nc(SCC(=O)NCc2ccccc2)c2c(=O)n(C)c(=O)n(C)c2n1`, the AC50 under setting [2] is 0.178 µM [rising, full curve, poor fit].

For `Cc1ccc(OCC(=O)N/N=C/c2cn(Cc3ccccc3)c3ccccc23)cc1`, the AC50 under setting [1] was 15.8 µM [rising, single point].

Consider `CC1(C)Cc2c(c(-c3ccco3)nc3n[nH]c(N)c23)CO1`, for which, under setting [1], the AC50 was 35.5 µM [rising, single point].

`Clc1ccc(-c2nnc3sc(Cc4cccs4)nn23)cc1`: the concentration at half-maximal activity (AC50) under setting [1] is 35.5 µM [rising, single point].

As to `O=C(CN1CCc2ccccc2C1)Nc1ccccc1N1CCCCCC1`, the concentration at half-maximal activity (AC50) is, setting by setting: under setting [2], 10 µM [rising, partial curve]; under setting [1], 11.2 µM [rising, single point].

Take `CN(Cc1cc(-c2ccccc2)on1)C(=O)c1cc(COc2c(F)cccc2F)on1`: the AC50 under setting [1] is 8.91 µM [falling, partial curve].

Regarding `CCC(=O)C1=C(c2ccc(OC)c(OC)c2)N(C(=O)CC)n2c(nnc2-c2ccc(C)cc2)S1`, under setting [1], the concentration at half-maximal activity (AC50) was 35.5 µM [rising, single point].

Take `CCc1cccc(CC)c1N1C(=O)c2cc(N3CCOCC3)c([N+](=O)[O-])cc2C1=O`: the half-maximal activity concentration (AC50) is 11.2 µM [rising, single point] under setting [2] and 25.1 µM [rising, single point] under setting [1].

Consider `CCOC(=O)N1CCC(NC(=O)c2cc(S(=O)(=O)N3CCC4(CC3)OCCO4)ccc2F)CC1`, for which the concentration at half-maximal activity (AC50) under setting [2] is 11.2 µM [rising, partial curve, poor fit].

In the case of `CN(C)CCCC1(O)c2ccccc2CCc2ccccc21`, the AC50 under setting [1] is 0.0398 µM [falling, full curve, poor fit].

As for `Cc1ccc(/C=N/NC(=O)COc2ccccc2-c2ccccc2)cc1`, the concentration at half-maximal activity (AC50) under setting [1] was 0.1 µM [rising, full curve].

The values are drawn from PubChem BioAssay AID1487 (National Center for Advancing Translational Sciences (NCATS), 2009).
